The target in the assay is N-terminally HA-tagged SIRV2 gp37 encoded within the viral genome (SIRV2). Nature of the assay: affinity purification with mass spectrometry.

Results are given in words; binding and its absence hold for the method and conditions named. In cells and extracts the contact can be indirect. Here binding means that the protein was enriched with, or labelled near, the bait; the list need not be complete.

B1: host protein lysine methyltransferase SiL_1451 (endogenous) (enzyme, UniProt F0NBH8 1-161)
chain: MSYVPHVPYVPTPEKVVRRMLEIAKVSQDDIVYDLGCGDGRIIITAAKDFNVKKAVGVEINDERIREALANIEKNGVTGRASIVKGNFFEVDISEATVVTMFLLTNVNEMLKPKLEKELKPGTRVVSHEFEIRGWNPKEVIKVEDGNMNHTVYLYVIGEHK
With B1, the binding result is recorded as “binds”.

Source of the values: publication doi:10.1101/2023.01.10.523387.
